Columns and labels:
[1] = biological target: batrachotoxin-sensitive Na+ channel (site 2); assay: [3H]batrachotoxin binding to Na+ channels (site 2); settings: rat cerebral cortex, 10 nM ligand, 60 min/22° C.; read-out: IC50, inhibition of [3H]batrachotoxin specific binding
NaV1.5 sodium channel = biological target: T1, NaV1.5 sodium channel (Homo sapiens, UniProt Q14524); assay: NaV1.5 electrophysiology (patch clamp) in HEK-293 cells; assay type: cell-based; settings: read-out: inhibition of NaV1.5 channels
T1 construct: expressed in transfected cells; host or cells: HEK-293
Method: The inhibitory effects of LAC-34 on batrachotoxin-sensitive Na^+ channel binding sites were tested using binding assays. The inhibitory effects of LAC-34 on human NaV1.3 and NaV1.5 channels were tested using electrophysiological methodology on stably expressed in mammalian cells (HEK-293). Inhibition of NaV1.8 channels were tested using electro-physiological methodology on dorsal root ganglia (DRG neurons)
Electrophysiological methodology was used and mammalian (HEK-293) cells, stably expressing NaV1.3 channels and superfused with vehicle control solution. The intracellular pipette contained solutions with the test article (LAC-34 or lidocaine.) A commercial patch clamp amplifier was used.
The same methodology as previously used for tests on NaV1.3 channels was also used for NaV1.5 channels.

Amino acid sequences for entries named in this document (tags omitted).
UniProt Q14524, whole entry: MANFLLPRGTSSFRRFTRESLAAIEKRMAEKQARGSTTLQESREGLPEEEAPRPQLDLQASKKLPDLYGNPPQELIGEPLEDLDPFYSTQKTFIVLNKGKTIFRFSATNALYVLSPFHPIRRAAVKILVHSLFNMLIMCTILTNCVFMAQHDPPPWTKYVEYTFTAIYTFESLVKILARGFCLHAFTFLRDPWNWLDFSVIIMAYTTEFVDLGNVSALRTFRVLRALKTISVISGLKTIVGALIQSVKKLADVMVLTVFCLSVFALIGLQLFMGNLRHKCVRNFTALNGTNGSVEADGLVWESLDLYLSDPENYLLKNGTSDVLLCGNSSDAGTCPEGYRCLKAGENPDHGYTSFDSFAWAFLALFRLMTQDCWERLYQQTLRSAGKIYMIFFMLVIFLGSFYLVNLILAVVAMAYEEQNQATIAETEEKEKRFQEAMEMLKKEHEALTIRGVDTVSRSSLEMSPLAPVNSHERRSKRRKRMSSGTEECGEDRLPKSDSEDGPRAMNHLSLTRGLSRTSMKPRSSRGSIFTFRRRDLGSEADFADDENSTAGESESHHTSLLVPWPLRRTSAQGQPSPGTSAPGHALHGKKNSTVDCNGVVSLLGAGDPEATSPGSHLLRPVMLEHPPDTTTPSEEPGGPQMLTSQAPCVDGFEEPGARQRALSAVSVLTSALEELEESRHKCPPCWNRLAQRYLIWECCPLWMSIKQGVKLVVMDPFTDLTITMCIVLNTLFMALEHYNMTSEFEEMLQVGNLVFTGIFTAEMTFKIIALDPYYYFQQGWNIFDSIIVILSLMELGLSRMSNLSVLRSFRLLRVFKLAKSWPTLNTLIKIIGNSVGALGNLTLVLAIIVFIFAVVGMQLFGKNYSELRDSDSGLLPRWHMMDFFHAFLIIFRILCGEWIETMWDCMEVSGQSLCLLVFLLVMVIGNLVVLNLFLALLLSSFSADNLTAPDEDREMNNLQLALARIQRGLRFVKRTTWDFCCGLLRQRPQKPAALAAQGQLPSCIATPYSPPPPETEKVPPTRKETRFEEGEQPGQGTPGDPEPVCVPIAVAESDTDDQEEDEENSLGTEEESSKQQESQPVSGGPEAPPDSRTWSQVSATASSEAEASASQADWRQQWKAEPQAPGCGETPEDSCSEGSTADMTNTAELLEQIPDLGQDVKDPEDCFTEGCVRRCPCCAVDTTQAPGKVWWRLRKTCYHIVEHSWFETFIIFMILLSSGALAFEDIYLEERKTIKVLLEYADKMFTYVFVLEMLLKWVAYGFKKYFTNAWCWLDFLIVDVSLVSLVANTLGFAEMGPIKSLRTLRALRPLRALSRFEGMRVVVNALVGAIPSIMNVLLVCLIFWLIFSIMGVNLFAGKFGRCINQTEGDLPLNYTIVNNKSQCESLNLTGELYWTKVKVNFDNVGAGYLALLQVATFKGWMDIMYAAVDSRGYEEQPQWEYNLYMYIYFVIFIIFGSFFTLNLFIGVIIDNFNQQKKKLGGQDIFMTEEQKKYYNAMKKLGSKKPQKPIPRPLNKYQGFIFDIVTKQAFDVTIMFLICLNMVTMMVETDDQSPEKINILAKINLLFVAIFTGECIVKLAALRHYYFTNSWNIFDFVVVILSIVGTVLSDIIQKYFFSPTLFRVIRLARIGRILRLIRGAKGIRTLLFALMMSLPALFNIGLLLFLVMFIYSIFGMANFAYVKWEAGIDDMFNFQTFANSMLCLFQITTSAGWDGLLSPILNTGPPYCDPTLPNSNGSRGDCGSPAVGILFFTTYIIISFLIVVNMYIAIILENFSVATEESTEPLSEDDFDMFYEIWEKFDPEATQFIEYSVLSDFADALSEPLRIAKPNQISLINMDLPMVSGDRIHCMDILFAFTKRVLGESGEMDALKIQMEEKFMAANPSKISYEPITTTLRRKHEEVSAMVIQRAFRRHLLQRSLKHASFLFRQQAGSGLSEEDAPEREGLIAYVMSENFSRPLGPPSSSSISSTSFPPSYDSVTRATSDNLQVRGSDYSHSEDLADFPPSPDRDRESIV

CCN(CC)CC(=O)Nc1c(C)cccc1C [Lidocaine, reference compound]
IC50 [1]: 52.5 µM | inhibition at 2 mM (NaV1.5 sodium channel): 90%
